These results are taken from US5225530A (priority 1986, dated 1993).

HELM strings list residues between dots; [ac] is acetyl, [am] amide, other brackets name non-standard units.

The data set is described as follows: peptide synthesis. The settings on record: purification step, relative to peptide removed from the resin.

The substance “PEPTIDE1{K.P.K.H.K.K.L.K.Q.P.G.D.G.N.P.N.A.N.P.N.A.N.P.N.A.N.P.N.A}$$$$V2.0” displayed a step yield of 40%.
